Results taken from paper PMC12560144.
Results are given in words; binding and its absence hold for the method and conditions named. Binding seen in cells or lysates may run through a third protein. These calls come from enrichment with a bait or labelling near it, and not all partners need be listed. Tags and fused reporters may be left off the sequences shown.

Target: T1, 3xFLAG-NRF2 (human) (UniProt Q16236)
T1 sequence: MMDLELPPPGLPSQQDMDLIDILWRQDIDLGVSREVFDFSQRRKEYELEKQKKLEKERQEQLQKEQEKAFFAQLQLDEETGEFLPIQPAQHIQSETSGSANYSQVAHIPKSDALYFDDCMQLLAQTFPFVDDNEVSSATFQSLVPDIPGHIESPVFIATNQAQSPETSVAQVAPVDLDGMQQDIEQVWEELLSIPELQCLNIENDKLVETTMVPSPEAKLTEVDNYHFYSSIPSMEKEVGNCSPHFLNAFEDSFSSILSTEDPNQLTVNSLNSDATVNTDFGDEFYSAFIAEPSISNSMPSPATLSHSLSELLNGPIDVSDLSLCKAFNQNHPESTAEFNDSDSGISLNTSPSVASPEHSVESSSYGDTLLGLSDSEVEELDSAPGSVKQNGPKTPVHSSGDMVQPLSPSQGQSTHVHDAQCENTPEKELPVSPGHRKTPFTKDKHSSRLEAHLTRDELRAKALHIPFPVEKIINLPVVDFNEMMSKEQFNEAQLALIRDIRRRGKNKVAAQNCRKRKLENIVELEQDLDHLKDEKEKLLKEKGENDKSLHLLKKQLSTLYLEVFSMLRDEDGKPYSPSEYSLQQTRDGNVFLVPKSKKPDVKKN
Assay: affinity purification with mass spectrometry; 3xFLAG-NRF2 or 3xFLAG-NRF2ΔETGE purified on αFLAG M2 resin from lysates of stably transduced HEK293T cells treated with MLN4924 (500 nM, 16 h); 20 mM HEPES pH 7.5, 150 mM NaCl, 0.2% Nonidet P-40, 4°C; eluted with 3xFLAG peptide; MudPIT, ComPASS

- binding: binds
Substance: βTrCP (endogenous, 293T cells) (human (endogenous in HEK293T))
